Data reported in patent US6720346B2, “Thiazole benzamide derivatives and pharmaceutical compositions for inhibiting cell proliferation” (Agouron Pharmaceuticals, Inc., priority 2001, dated 2004).
The structures given here were assigned with low confidence; some may be wrong.

Sequences of proteins named here, by UniProt entry; tags and fusion partners are left off. Residues count along the entry.
UniProt P11802, whole entry: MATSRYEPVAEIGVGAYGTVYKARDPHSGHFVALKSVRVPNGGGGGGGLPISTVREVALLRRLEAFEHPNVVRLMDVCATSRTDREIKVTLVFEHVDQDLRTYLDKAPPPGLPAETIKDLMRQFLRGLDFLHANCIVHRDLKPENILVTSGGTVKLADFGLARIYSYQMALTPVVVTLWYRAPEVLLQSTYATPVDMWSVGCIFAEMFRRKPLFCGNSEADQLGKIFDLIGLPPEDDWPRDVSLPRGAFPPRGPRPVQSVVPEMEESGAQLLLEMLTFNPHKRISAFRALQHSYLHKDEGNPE
UniProt P30281, 1-264 partner limits assumed: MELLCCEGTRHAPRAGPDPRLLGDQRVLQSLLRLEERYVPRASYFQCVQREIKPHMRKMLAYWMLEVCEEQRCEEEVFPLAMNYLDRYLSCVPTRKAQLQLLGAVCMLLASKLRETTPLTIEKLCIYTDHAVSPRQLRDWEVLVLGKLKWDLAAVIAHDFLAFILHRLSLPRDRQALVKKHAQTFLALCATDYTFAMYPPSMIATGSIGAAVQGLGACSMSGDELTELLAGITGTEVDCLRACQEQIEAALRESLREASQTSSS

Columns and labels:
[1] = tested on: HCT-116 cell line; test: Inhibition of cell growth, MTT tetrazolium salt assay; conditions: read-out: HCT-116 IC50, three to five days
Method: Inhibition of cell growth was measured using the tetrazolium salt assay, which is based on the ability of viable cells to reduce 3-(4,5-dimethylthiazol-2-yl)-2,5-[2H]-diphenyltetrazolium bromide (MTT) to formazan (Mossman, Journal of Immunological Methods, 65, (1983), pp. 55-58). The water-insoluble purple formazan product was then detected spectrophotometrically. The HCT-116 cell line was used as a representative cancer cell line and grown in 96-well plates. Cells were plated in McCoy's 5A Medium at a volume of 135 μl/well. Plates were incubated for four hours before addition of inhibitor compounds. Different concentrations of inhibitor compounds were added in 0.5% (v/v) dimethylsulfoxide (15 μL/well), and cells were incubated at 37° C. (5% CO2) for three to five days. At the end of the incubation, MTT was added to a final concentration of 0.2 mg/mL, and cells were incubated for 4 hours more at 37° C. After centrifugation of the plates and removal of medium, the absorbance of the formazan (solubilized in dimethylsulfoxide) was measured at 540 nm. The concentration of inhibitor compound causing 50% (IC50) or 90% ([…]) inhibition of growth was determined from the linear portion of a semi-log plot of inhibitor concentration versus percent inhibition. All results were compared to control cells treated only with 0.5% (v/v) dimethylsulfoxide.

[2] = target: human CDK4/cyclin D3 (Homo sapiens, UniProt P11802); test: Inhibition of CDK4/cyclin D retinoblastoma kinase activity (Ki; % inhibition); conditions: read-out: CDK4 Ki; apparent Ki, CDK4/cyclin D3, Rb substrate

SMILES: C[C@H](CN(C)C)N(C)C(=O)c1ccc(Nc2nc(N)c(C(=O)c3c(F)cccc3F)s2)cc1
- IC50 [1]: 300 nM
- Ki [2]: 53 nM
